Assay results from patent US20260091082A1, “CYCLIC PEPTIDE DERIVATIVE COMPOSITION FOR TREATING OR PREVENTING EYE DISEASE” (DKS Co. Ltd., priority 2022, published 2026).
Further values from the same series stand in other lists.

Assay: General condition observation (clinical signs) in anterior chamber aqueous humor pressure load rat model
Format: in vivo, Rat; Slc: SD
Set-up: key: —: No anormal sign
Settings: 1 mg/mL eye drop, right eye, per animal
Description: • Species and strains: Rat; Slc: SD • Number of animals on arrival and sex: 50 males • Age in weeks at arrival: 6 weeks old • Body weight range at arrival: 147.2 to 170.0 g • Source: Japan SLC, Inc.
The body weight of the animals was measured at a frequency of once a week or more, and the general condition observation was performed every day.
• Administration route: Eyedrop administration, intravenous administration • Administration method (eyedrop): Eyedrop administration was performed on a treated eye (right eye) of a rat using a micropipette 4 times a day (at intervals of 1.5 hours or more). • Administration method (intravenous): The amount of administration solution, calculated from the body weight on the day of administration, was administered from the tail vein using a syringe and an injection needle about 30 minutes before ischemic load. • Time of administration: Administration was performed according to the following schedule.

Measured: Clinical signs

CC[C@@]1(C)Oc2cc(ccc2O)C[C@H](NC)C(=O)N[C@@H](C(C)C)C(=O)N[C@@H]1C(=O)N[C@@H](CC(=O)O)C(=O)O [Compound 9]
—: Day 7, animals 201-210 (test group 2, dosed on the 2 days before model creation) | Day 7, animals 301-310 (test group 3, dosed 13 days from the day after model creation) | Day 8, animals 201-210 (test group 2, dosed on the 2 days before model creation) | Day 8, animals 301-310 (test group 3, dosed 13 days from the day after model creation) | Day 9, animals 201-210 (test group 2, dosed on the 2 days before model creation) | Day 9, animals 301-310 (test group 3, dosed 13 days from the day after model creation) | Day 10, animals 201-210 (test group 2, dosed on the 2 days before model creation) | Day 10, animals 301-310 (test group 3, dosed 13 days from the day after model creation) | Day 11, animals 201-210 (test group 2, dosed on the 2 days before model creation) | Day 11, animals 301-310 (test group 3, dosed 13 days from the day after model creation) | Day 12, animals 201-210 (test group 2, dosed on the 2 days before model creation) | Day 12, animals 301-310 (test group 3, dosed 13 days from the day after model creation) | Day 13, animals 201-210 (test group 2, dosed on the 2 days before model creation) | Day 13, animals 301-310 (test group 3, dosed 13 days from the day after model creation) | Day 14 (day of necropsy), animals 201-210 (test group 2, dosed on the 2 days before model creation) | Day 14 (day of necropsy), animals 301-310 (test group 3, dosed 13 days from the day after model creation)
